For 2 substances, binding results are on record in paper PMC7061341, “Detection of the in vitro modulation of Plasmodium falciparum Arf1 by Sec7 and ArfGAP domains using a colorimetric plate-based assay” (Scientific Reports, 2020).

Chains of the proteins cited; added tags and fusions are not shown. Lines headed by an entry give the natural chain unless they say otherwise; changes in a name come on top. Residues count along the entry.
UniProt Q9NZ52: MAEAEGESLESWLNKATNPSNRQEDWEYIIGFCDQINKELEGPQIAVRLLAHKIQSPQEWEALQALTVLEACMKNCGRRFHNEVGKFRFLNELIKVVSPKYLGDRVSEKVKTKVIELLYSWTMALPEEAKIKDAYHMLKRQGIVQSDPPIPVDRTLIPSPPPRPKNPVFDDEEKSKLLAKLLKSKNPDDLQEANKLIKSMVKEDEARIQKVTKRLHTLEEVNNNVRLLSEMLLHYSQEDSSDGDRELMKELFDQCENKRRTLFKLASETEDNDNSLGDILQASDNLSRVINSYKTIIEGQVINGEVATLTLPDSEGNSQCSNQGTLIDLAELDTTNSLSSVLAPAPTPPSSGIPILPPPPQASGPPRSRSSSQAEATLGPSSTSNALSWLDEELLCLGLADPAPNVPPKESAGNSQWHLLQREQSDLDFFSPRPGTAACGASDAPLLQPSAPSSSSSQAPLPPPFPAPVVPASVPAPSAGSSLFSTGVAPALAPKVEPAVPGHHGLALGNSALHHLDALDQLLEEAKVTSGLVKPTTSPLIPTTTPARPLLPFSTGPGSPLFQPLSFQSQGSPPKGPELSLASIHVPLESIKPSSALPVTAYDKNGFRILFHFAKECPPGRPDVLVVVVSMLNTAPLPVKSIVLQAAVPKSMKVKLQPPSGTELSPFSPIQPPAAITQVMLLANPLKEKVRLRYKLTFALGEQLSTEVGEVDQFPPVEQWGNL
UniProt P84077, residues 18-181: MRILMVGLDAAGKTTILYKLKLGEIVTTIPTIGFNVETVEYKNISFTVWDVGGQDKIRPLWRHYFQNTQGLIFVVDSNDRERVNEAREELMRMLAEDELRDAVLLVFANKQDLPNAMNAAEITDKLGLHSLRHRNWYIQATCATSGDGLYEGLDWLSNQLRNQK

Test [1] addresses GST-GGA3^GAT (glutathione-S-transferase fused to the GAT domain of human GGA3) (human) (UniProt Q9NZ52). In words: pull-down; GGA3-coated beads; GTP-bound ^NΔ17PfArf1 (Fig. S3); both purified.
The target of test [2] is ^NΔ17PfArf1 (His-tagged P. falciparum Arf1 minus the N-terminal 17 amino acids) (Plasmodium falciparum) (UniProt Q7KQL3). Description: colorimetric plate-based GST-GGA3^GAT binding assay (GST activity read at 340 nm); both purified.
In test [3] the target is ^NΔ17HsArf1 (His-tagged human Arf1 minus the N-terminal 17 amino acids) (human) (UniProt P84077). In words: colorimetric plate-based GST-GGA3^GAT binding assay (GST activity read at 340 nm); GDP-preloaded Arf1 (1 µM) first incubated with 0.2 µM ARNO^Sec7 and 50 µM GTP for 30 min at 37 °C, then immobilised on Ni-NTA plate; 1 µM GST-GGA3^GAT, 60 min at 4 °C; both purified.
For test [4] the target is unchanged. In words: colorimetric plate-based GST-GGA3^GAT binding assay (GST activity read at 340 nm); GTP-preloaded His-tagged Arf1 (1 µM) immobilised on Ni-NTA 96-well plate, 1 µM GST-GGA3^GAT added, 60 min at 4 °C; 25 mM HEPES, 150 mM KCl, 1 mM MgCl2, 1 mM DTT, pH 7.4, BSA; both purified.
For test [5] the target is unchanged. Description: condition: only after incubation of the GTP-preloaded Arf1 with 0.1 µM HsArfGAP1^GAP (30 min, 37 °C); colorimetric plate-based GST-GGA3^GAT binding assay (GST activity read at 340 nm); GTP-preloaded Arf1 (1 µM) first incubated with 0.1 µM HsArfGAP1^GAP for 30 min at 37 °C, then immobilised on Ni-NTA plate; 1 µM GST-GGA3^GAT, 60 min at 4 °C; both purified.

No constants are given. Whether binding was seen depends on the method and setting. For some assays here: Binding calls can cover weak binding; strength is not graded here.

For the substance “^NΔ17PfArf1 (His-tagged P. falciparum Arf1 minus the N-terminal 17 amino acids) (from UniProt Q7KQL3 18-181) (domain or fragment)”, the binding entry in test [1] was “binds”.
With “GST-GGA3^GAT (glutathione-S-transferase fused to the GAT domain of human GGA3) (from UniProt Q9NZ52) (domain or fragment)”, the binding result in test [2] is recorded as “binds”; in test [3], “binds”; in test [4], “binds”; in test [5], “no binding”.
